This experiment deals with BDF1 mice, P388 leukemia ip, median survival T/C. Nature of the experiment: NCI In Vivo Anticancer Drug Screen. Data for tumor model P388 Leukemia (intraperitoneal) in B6D2F1 (BDF1) mice. The settings on record: T/C endpoint: median survival time, higher T/C = longer survival. The procedure, abridged: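 Compound-treated tumour-bearing mice were compared with vehicle-treated controls. Survival was recorded, and the value is the treated-group measurement divided by the control-group measurement (T/C).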

Where [1] appears, read: dose: 0.39 mg/kg/injection, schedule: Q01DX009 (ip), vehicle: saline.
Where [2] appears, read: dose: 50.0 mg/kg/injection, schedule: Q01DX009 (ip), vehicle: saline with Tween-80.
Setting [3] is: dose: 100.0 mg/kg/injection, schedule: Q01DX009 (ip), vehicle: saline with Tween-80.
Where [4] appears, read: dose: 12.5 mg/kg/injection, schedule: Q01DX009 (ip), vehicle: saline with Tween-80.

The list shows only some results of the screen, not a fair sample: it is rich in T/C values a quarter to a half above the control, in often repeated tests (any T/C) and in doses without a T/C. Further doses and runs are listed elsewhere. T/C gives the treated animals as a percentage of the vehicle group. Some entries give survivors of the animals treated and no T/C: the source files T/C as zero there, which appears to mark a toxic dose or a test without result, not a measured value. Some doses without a T/C left all or most animals alive at the check, yet need not have been tolerated: the source hardly ever lists a survival T/C far under the control, and the zero likely stands for such cases as well. Survivors were counted at the toxicity check, usually on the fifth day, unless a day is given; later deaths do not show. Schedules are NCI's codes, read here as Q, the interval in days (D) or hours (H), X, the number of doses. Some doses were run more than once; the results are listed from low to high. For survival time, this PubChem deposit counts one and a half times the control or more as active, and values a quarter to a half above the control carry no call in these data; other NCI protocols may use other cut-offs. Some T/C values carry the count of animals alive at the toxicity check (mostly the fifth day); without a count, all were alive then.

As for `CSc1ncnc2c1ncn2C1CCCO1` (stereo not drawn), the survivor count was 3 of 6 (dose: 200.0 mg/kg/injection, schedule: Q04DX003 (ip), vehicle: saline); 4 of 6 (dose: 225.0 mg/kg/injection, schedule: Q01DX009 (ip), vehicle: Klucel (hydroxypropylcellulose) (HPC)); 1 of 6 (dose: 335.0 mg/kg/injection, schedule: Q01DX009 (ip), vehicle: Klucel (hydroxypropylcellulose) (HPC)); 1 of 6 (dose: 400.0 mg/kg/injection, schedule: Q04DX003 (ip), vehicle: saline).

Turning to `O=NN(CCCl)C(=O)NC1CCC(=O)NC1=O` (stereo not drawn), where the note is “dose: 13.5 mg/kg/injection, schedule: Q04DX003 (ip), vehicle: gum acacia”, the T/C is 145 % of control. The survivor count is on record as 5 of 6 (dose: 100.0 mg/kg/injection, schedule: Q04DX003 (ip), vehicle: saline with Tween-80); 5 of 6 (dose: 200.0 mg/kg/injection, schedule: Q04DX003 (ip), vehicle: saline with Tween-80); 0 of 6 (dose: 400.0 mg/kg/injection, schedule: Q04DX003 (ip), vehicle: saline with Tween-80).

Take `N#C/C(C(=N)c1ccccc1)=C1\SS/C(=C(\C#N)C(=N)c2ccccc2)S1`: the T/C by setting is: (dose: 3.0 mg/kg/injection, schedule: Q01DX009 (ip), vehicle: saline with Tween-80) 135 % of control; (dose: 6.0 mg/kg/injection, schedule: Q01DX009 (ip), vehicle: saline with Tween-80) 126 % of control.

Consider `CCCCCCCCCCCCCC/[N+]([O-])=C/c1ccc([N+](=O)[O-])o1`, for which the survivor count (dose: 50.0 mg/kg/injection, schedule: Q04DX002 (ip), vehicle: saline with Tween-80) is recorded as 5 of 6 and the survivor count (dose: 100.0 mg/kg/injection, schedule: Q04DX002 (ip), vehicle: saline with Tween-80) is 6 of 6.

Consider `CCCCOCN(COCCCC)C(C)(C)C`, for which the survivor count (dose: 400.0 mg/kg/injection, schedule: Q01DX001 (ip), vehicle: saline) was 0 of 6.

In the case of `c1ccc(CSc2ncnc3nc[nH]c23)nc1`, where the note is “dose: 200.0 mg/kg/injection, schedule: Q01DX009 (ip), vehicle: saline sonified”, the survivor count was 4 of 6.

Turning to `CC1CC[N-]CC1.CC1CC[N-]CC1.CC1CC[N-]CC1.CC1CC[N-]CC1.[Pt+4]`, under setting [1], the T/C was 125 % of control. Further, the survivor count was 6 of 6 under setting [1]; 2 of 6 (dose: 4.0 mg/kg/injection, schedule: Q01DX009 (ip), vehicle: saline); 1 of 6 (dose: 6.25 mg/kg/injection, schedule: Q04DX003 (ip), vehicle: saline); 0 of 6 (dose: 8.0 mg/kg/injection, schedule: Q01DX009 (ip), vehicle: saline); 0 of 6 (dose: 12.5 mg/kg/injection, schedule: Q04DX003 (ip), vehicle: saline); 0 of 6 (dose: 16.0 mg/kg/injection, schedule: Q01DX009 (ip), vehicle: saline). For the same molecule, where the note is “dose: 32.0 mg/kg/injection, schedule: Q01DX009 (ip), vehicle: saline”, the survivor count is reported as 0 of 6.

For the molecule `CC(=O)CC(OC(=O)c1cc([N+](=O)[O-])cc([N+](=O)[O-])c1)(C(F)(F)F)C(F)(F)F`, the survivor count under setting [2] is 2 of 3.

For the molecule `COC(=O)C12CCc3cc(OC)ccc3C1=CC(=O)C2` (stereo not drawn), the T/C (dose: 400.0 mg/kg/injection, schedule: Q04DX003 (ip), vehicle: saline sonified) is 127 % of control.

`N#Cc1ccccc1-n1c(=O)c2cc3c(=O)n(-c4ccccc4C#N)c(=O)c3cc2c1=O`: the T/C by setting is: under setting [2], 126 % of control; under setting [3], 128 % of control.

On to `CN1CCN(c2ccc([N+](=O)[O-])c3nonc23)CC1`, for which the survivor count (dose: 80.0 mg/kg/injection, schedule: Q04DX003 (ip), vehicle: saline with Tween-80) was 5 of 7.

`C[n+]1ccc2cc(N)c3c4ccccc4sc3c2c1`: the survivor count (dose: 1.56 mg/kg/injection, schedule: Q01DX009 (ip), vehicle: saline with Tween-80) is given as 6 of 6; the survivor count under setting [4] is listed as 3 of 6; the survivor count (dose: 50.0 mg/kg/injection, schedule: Q01DX009 (ip), vehicle: Klucel (hydroxypropylcellulose) (HPC)) was 0 of 6; the survivor count under setting [2] was 0 of 6 and 3 of 6; the survivor count (dose: 50.0 mg/kg/injection, schedule: Q04DX003 (ip), vehicle: saline with Tween-80) is 5 of 6. Also, the T/C was 135 % of control [4 of 6 alive] (dose: 6.25 mg/kg/injection, schedule: Q01DX009 (ip), vehicle: saline with Tween-80, evaluated on day 20); 128 % of control (dose: 6.25 mg/kg/injection, schedule: Q01DX009 (ip), vehicle: saline with Tween-80, evaluated on day 30); 140 % of control (dose: 12.5 mg/kg/injection, schedule: Q01DX009 (ip), vehicle: Klucel (hydroxypropylcellulose) (HPC)); 128 % of control under setting [4]; 137 % of control (dose: 25.0 mg/kg/injection, schedule: Q01DX009 (ip), vehicle: saline with Tween-80).

Consider `CC#CCOCC1CN(c2ccccc2)C(=O)O1` (stereo not drawn), for which, under setting [3], the survivor count was 6 of 6.

(Values after PubChem BioAssay AID328 (DTP/NCI, 2004).)
